{"source": "PubChem BioAssay AID602313", "about": "(National Center for Advancing Translational Sciences (NCATS), 2012)", "note": "Screen size: about 390,000 compounds; about 760 (0.19%) were called active. The inconclusive results got no clear call from the source; some entries with a clear call stand among them for comparison. The call rests on the fitted dose curve; in most records, active means well fitted inhibition curve with a large enough effect; inconclusive means small, poorly fitted or top-dose-only effect; inactive means flat fitted curve, though single readings scatter. A potency beside an inconclusive call is a rough fit, not a confirmed value. Potency means the concentration at half of the fitted maximal effect."}
{"assay": "qHTS for Inhibitors of Vif-A3F Interactions: qHTS; further: nearly all actives have a fitted effect of over 65% in size; on activity, negative = active: % of control where 0% means no effect", "details": "HeLa A3F-eYFP + Vif (tagged APOBEC3F with the HIV-1 protein that degrades it), YFP fluorescence increase; series mostly up to 46.1 µM; activity, negative = active: at the top concentration", "procedure,_shortened": "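HeLa cells stably expressing Vif plus C-terminally eYFP-tagged A3F were seeded, incubated overnight at 37 deg C, dosed with compound, incubated overnight again at 37 deg C. Yellow fluorescence (Ex 488/Em 500-530) reported blocked Vif-mediated A3F-eYFP degradation.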"}
{"smiles": "NS(=O)(=O)c1ccc(N2N=C(c3ccccc3)CC2c2cccc(Br)c2)cc1", "note": "(stereo not drawn)", "activity, negative = active": "inactive: 7.09%"}
{"smiles": "O=C(CSc1nc2ccccc2c(=O)[nH]1)Nc1cccc([N+](=O)[O-])c1", "Potency": "inconclusive: 35.5 µM [inhibitor, single point]"}
{"smiles": "CCNC(=S)Nc1cc(-c2ccc(Cl)cc2)[nH]n1", "Potency": "inconclusive: 11.2 µM [inhibitor, partial curve, poor fit]"}
{"smiles": "CCc1c(C)nc(SCC(=O)N2CCCCC2)[nH]c1=O", "Potency": "inconclusive: 35.5 µM [inhibitor, single point]"}
{"smiles": "S=C(Nc1cccnc1)NC1CCCCCCC1", "activity, negative = active": "inactive: -15.7%"}
{"smiles": "Oc1c(CN2CCCCC2)ccc2cccnc12", "Potency": "inconclusive: 5.62 µM [inhibitor, single point]"}
{"smiles": "CCNC(=S)N/N=C(\\C)c1ccco1", "Potency": "inconclusive: 35.5 µM [inhibitor, single point]"}
{"smiles": "Nc1nc(-c2sc3nc4c(cc3c2N)CCCC4)nc(N2CCOCC2)n1", "Potency": "inconclusive: 35.5 µM [inhibitor, single point]"}
{"smiles": "NC(=S)c1ccc(OCCCc2ccccc2)cc1", "Potency": "inconclusive: 15.8 µM [inhibitor, partial curve, poor fit]"}
{"smiles": "CN1CCCC1CCNc1ccc2sc3ccccc3c(=O)c2c1", "note": "(stereo not drawn)", "Potency": "inconclusive: 17.8 µM [inhibitor, partial curve, poor fit]"}
{"smiles": "Cc1cc(C)n2nc(SCc3cc(=O)oc4ccc5ccccc5c34)nc2n1", "activity, negative = active": "inactive: 6.2%"}
{"smiles": "Cn1nc(C(=O)OCC(=O)c2ccc(Br)cc2)c2ccccc2c1=O", "Potency": "inconclusive: 35.5 µM [inhibitor, single point]"}
{"smiles": "COCCCn1c(=O)/c(=C\\c2cccc(OC)c2OC)s/c1=C(/C#N)C(=O)Nc1ccc(C(=O)O)cc1", "Potency": "inconclusive: 17.8 µM [inhibitor, partial curve, poor fit]"}
{"smiles": "O=C1c2cccc3c(N4CCCCC4)ccc(c23)C(=O)N1c1ccccn1", "Potency": "inconclusive: 1.58 µM [inhibitor, full curve, poor fit]"}
{"smiles": "O=C(CNS(=O)(=O)Cc1ccccc1)NCc1ccccc1", "Potency": "inconclusive: 15.8 µM [inhibitor, partial curve, poor fit]"}
{"smiles": "COc1cc2c(cc1OC)-c1cc3ccc4c(c3c[n+]1CC2)OCO4", "Potency": "inconclusive: 35.5 µM [inhibitor, single point]"}
{"smiles": "CN(/N=C/c1cccnc1)C1=NS(=O)(=O)c2ccccc21", "Potency": "inconclusive: 31.6 µM [inhibitor, single point]"}
{"smiles": "Cc1cc(NC(=O)CCc2nc3cccnc3n2Cc2cccs2)ccc1Br", "Potency": "inconclusive: 35.5 µM [inhibitor, single point]"}
{"smiles": "Cc1cccc(Nc2nc(N)nc(N)c2N=O)c1", "Potency": "inconclusive: 6.31 µM [inhibitor, partial curve, poor fit]"}
{"smiles": "O=C(C=C(O)c1ccc(Cl)cc1)C(=O)NNC(=O)C(O)(c1ccccc1)c1ccccc1", "Potency": "inconclusive: 3.16 µM [inhibitor, single point]"}
{"smiles": "CCc1cccc2c(C(=O)CN3C(=O)NC4(CCCCCC4)C3=O)c[nH]c12", "activity, negative = active": "inactive: -13.4%"}
{"smiles": "Cc1ccc(NS(=O)(=O)c2cccc(C(=O)NCC3CCCO3)c2)cc1", "note": "(stereo not drawn)", "Potency": "inconclusive: 35.5 µM [inhibitor, single point]"}
{"smiles": "O=C(Nc1ccc(N2CCOCC2)cc1)c1cc2c(s1)CCCC2", "activity, negative = active": "inactive: -20%"}
{"smiles": "CCn1ccnc1CN1CCc2c([nH]c3ccccc23)C1C(C)(C)C", "note": "(stereo not drawn)", "Potency": "inconclusive: 20 µM [inhibitor, partial curve, poor fit]"}
{"smiles": "Cc1ccc(-n2sc3ccccc3c2=O)cc1", "activity, negative = active": "inactive: 0.874%"}
{"smiles": "Cc1ccc(S(=O)(=O)CCN2CCC(O)(c3ccccc3)CC2)cc1", "Potency": "inconclusive: 35.5 µM [inhibitor, single point]"}
{"smiles": "COc1ccc(OC(C)C(=O)N2CCC(C)CC2)cc1", "note": "(stereo not drawn)", "Potency": "inconclusive: 3.16 µM [inhibitor, single point]"}
{"smiles": "CCCCc1nn2c(=O)cc(COC(=O)c3ccccc3NC(=O)c3ccccc3OC)nc2s1", "activity, negative = active": "inactive: 0.895%"}
{"smiles": "CC(C)Nc1nc(Cl)nc(Nc2ccccc2)n1", "Potency": "inconclusive: 6.31 µM [inhibitor, single point]"}
{"smiles": "CC(C)COP(=O)(OCC(C)C)C(Nc1ccccc1)c1ccccc1", "note": "(stereo not drawn)", "activity, negative = active": "inactive: 18.3%"}
{"smiles": "NC(=O)CC(NC(=O)Cc1cccc2ccccc12)c1ccc(NCc2ccccc2)c([N+](=O)[O-])c1", "note": "(stereo not drawn)", "Potency": "inconclusive: 10 µM [inhibitor, partial curve, poor fit]"}
{"smiles": "COc1cc(/C=C/C(=O)c2ccc3c(c2)OCCO3)cc(Br)c1OCC(=O)N(C)C", "Potency": "inconclusive: 31.6 µM [inhibitor, single point]"}
{"smiles": "Cc1cccc(/C=N/NC(=O)c2cc(C)nc3ccccc23)n1", "Potency": "inconclusive: 6.31 µM [inhibitor, single point]"}
{"smiles": "O=C(OCc1cc(=O)n2c3c(sc2n1)CCCC3)c1cccc(NC(=O)c2ccccc2F)c1", "activity, negative = active": "inactive: 3.94%"}
{"smiles": "CSc1cccc(NS(=O)(=O)c2ccc(-c3coc(C)n3)cc2)c1", "Potency": "inconclusive: 5.62 µM [inhibitor, single point]"}
{"smiles": "Cc1nc(SCC(=O)c2ccccc2)c(C#N)c(-c2ccco2)c1C(=O)NCc1ccco1", "Potency": "inconclusive: 35.5 µM [inhibitor, single point]"}
{"smiles": "NC(=O)COC(=O)C1CSC2(c3ccc(F)cc3)CCC(=O)N12", "note": "(stereo not drawn)", "Potency": "inconclusive: 35.5 µM [inhibitor, single point]"}
{"smiles": "CCOc1ccc(OCC(=O)Nc2ccc(N3CCCCC3)cc2)cc1", "Potency": "inconclusive: 0.562 µM [inhibitor, full curve, poor fit]"}
{"smiles": "CCC(COC)Oc1cc(NCc2ccccc2)c2ncn(C(C)C)c2c1", "note": "(stereo not drawn)", "activity, negative = active": "inactive: -22.9%"}
{"smiles": "O=C(/C=C/c1ccc2ccccc2n1)c1cc(Br)ccc1O", "Potency": "inconclusive: 11.2 µM [inhibitor, partial curve, poor fit]"}
{"smiles": "Cc1ccc(N/C=C2/Sc3ccccc3NC2=O)cc1", "Potency": "inconclusive: 35.5 µM [inhibitor, single point]"}
{"smiles": "Nc1ccc2c(c1)[nH]c(=O)c1ccccc12", "activity, negative = active": "inactive: -29.6%"}
{"smiles": "COc1cc(/C=N/NC(=O)C(N)=O)cc(OC)c1O", "Potency": "inconclusive: 35.5 µM [inhibitor, single point]"}
